These are yes or no findings as the source states them, for the method shown. Binding seen in cells or lysates may run through a third protein. These calls come from enrichment with a bait or labelling near it, and not all partners need be listed. For some assays here: No binding means not detected with the bait.
How the values were obtained:
[1] = biological target: ClpP^trap-SPA (catalytically inactive ClpP S111A with SPA tag) (E. coli) (UniProt P0A6G7); assay: affinity purification with mass spectrometry; ClpP^trap-SPA pulled down on FLAG antibody resin from lysate of MC4100 ΔclpPΔclpAΔsmpB (TF strain), eluted with FLAG peptide, LC-MS/MS
[2] = biological target: ClpP^trap-SPA (catalytically inactive ClpP S111A with SPA tag) (E. coli) (UniProt P0A6G7); assay: condition: only in the strain lacking TF (ΔclpPΔclpAΔsmpBΔtig); affinity purification with mass spectrometry; ClpP^trap-SPA pulled down on FLAG antibody resin from lysate of MC4100 ΔclpPΔclpAΔsmpBΔtig (no TF strain), eluted with FLAG peptide, LC-MS/MS

RpoS (from UniProt P13445 1-330)
binding [1]: binds | binding [2]: no binding

— publication PMC7804408
